Test results from publication PMC5447128.
These are yes or no findings as the source states them, for the method shown. Binding seen in cells or lysates may run through a third protein. Some entries that bind do so weakly or less than the wild type. For some assays here: Tags and fused reporters may be left off the sequences shown.

By UniProt entry, the sequences of proteins in these tests, tags left out. Residues count along the entry.
UniProt O43681: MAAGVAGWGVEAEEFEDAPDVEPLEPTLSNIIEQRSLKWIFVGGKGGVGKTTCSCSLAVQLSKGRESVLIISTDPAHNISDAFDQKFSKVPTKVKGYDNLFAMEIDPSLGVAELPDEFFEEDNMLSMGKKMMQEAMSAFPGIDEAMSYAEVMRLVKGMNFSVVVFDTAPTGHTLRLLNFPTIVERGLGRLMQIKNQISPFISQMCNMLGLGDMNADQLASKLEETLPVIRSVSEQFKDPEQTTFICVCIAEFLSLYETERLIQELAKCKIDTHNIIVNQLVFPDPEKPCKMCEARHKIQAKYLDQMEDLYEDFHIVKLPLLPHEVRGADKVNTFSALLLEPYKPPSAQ
UniProt P49069, residues 186-296: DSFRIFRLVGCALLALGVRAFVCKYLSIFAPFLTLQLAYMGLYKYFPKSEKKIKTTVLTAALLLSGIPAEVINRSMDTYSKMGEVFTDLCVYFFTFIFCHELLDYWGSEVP

Columns and labels:
[1] = biological target: 3xHA-TRC40 (transmembrane domain recognition complex of 40 kDa) (UniProt O43681); experiment: co-IP; HEK293T cells co-transfected with HA-TRC40 and FLAG-CAML constructs; lysis in 0.1% Triton X-100, 20 mM HEPES-NaOH pH 7.5, 150 mM NaCl, 10% glycerol; 500 ug lysate; 30 ul anti-HA-affinity matrix (or agarose beads as control) 2 h at 4 C; western blot
[2] = biological target: T1, Myc-WRB (tryptophan-rich basic protein) (UniProt O00258); experiment: co-IP; HEK293T cells co-transfected with Myc-WRB and FLAG-CAML constructs; lysis in 0.1% Triton X-100, 20 mM HEPES-NaOH pH 7.5, 150 mM NaCl, 10% glycerol; 500 ug lysate; 5 ug anti-Myc (or non-specific IgG) 2 h at 4 C, Protein G magnetic beads 1 h at 4 C; western blot
T1 sequence: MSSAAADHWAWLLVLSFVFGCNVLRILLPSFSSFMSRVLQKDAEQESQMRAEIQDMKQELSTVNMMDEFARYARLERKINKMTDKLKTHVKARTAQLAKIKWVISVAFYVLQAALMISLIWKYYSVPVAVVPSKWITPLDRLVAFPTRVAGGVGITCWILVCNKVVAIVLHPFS

- binding [1]: no binding
- binding [2]: binds
Substance: FLAG-CAML-C (CAML residues 186-296, C-terminal fragment C3) (from UniProt P49069 186-296) (domain or fragment)
